Data as given in PubChem BioAssay AID652243 (Drosophila RNAi Screening Center, 2013).
The deposit covers about 24,000 reagents; below is a random part of those with a known target gene and a result. Over the whole deposit, 246 (1%) got an active call. 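Plates not normalised; calls are printed but the firefly/Renilla ratio behind them is not deposited; fold cut for lowering reported inconsistently.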 The raw values are shown without normalisation. A number with no mark means an inactive call. Reagents against one gene are numbered here. Names joined by + are all predicted targets of the reagent. No sequences are given here. Not stated in the record: the amount of reagent.

Purpose: 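Knock-downs that decrease or increase androgen receptor reporter signal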 (primary screen)
Cells: Drosophila S2R+ cells
Knock-down reagent: long dsRNA against Drosophila genes
Time to read-out: 72 h (48 h, then 24 h hormone)
Challenge: synthetic androgen R1881 at 10 nM for 24 h
Measurement: 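Firefly light from an androgen-responsive reporter and Renilla control light per well, raw and unnormalised, for each of two replicates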
Reading the numbers: firefly reporter light: higher = more light from androgen-responsive reporter; Renilla control light: higher = more constitutive control signal (cell number, transfection)
Hit rule: 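Across duplicate plates, a knock-down whose log firefly/Renilla ratio shifted a set fold down or up from the GFP/LacZ control mean was a hit; the downward cut appears as both 1.5 and 3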
Meaning of the calls: active = hit: reporter lowered or raised; inactive = no hit

CG5103 (GeneID 40012): firefly reporter light, replicate 1 = 2.18e5; firefly reporter light, replicate 2 = 2.05e5; Renilla control light, replicate 1 = 2.16e6; Renilla control light, replicate 2 = 2.08e6
phyl (GeneID 36606) #1: firefly reporter light, replicate 1 = 1.14e5; firefly reporter light, replicate 2 = 1.33e5; Renilla control light, replicate 1 = 2.19e6; Renilla control light, replicate 2 = 2.19e6
phyl (GeneID 36606) #2: firefly reporter light, replicate 1 = 4.96e5; firefly reporter light, replicate 2 = 3.93e5; Renilla control light, replicate 1 = 5.15e5; Renilla control light, replicate 2 = 3.77e5
mRpL11 (GeneID 41757): firefly reporter light, replicate 1 = 1.80e5; firefly reporter light, replicate 2 = 1.45e5; Renilla control light, replicate 1 = 2.48e6; Renilla control light, replicate 2 = 2.09e6
Not3 (GeneID 35501) #1: firefly reporter light, replicate 1 = 7.24e5; firefly reporter light, replicate 2 = 7.04e5; Renilla control light, replicate 1 = 1.31e6; Renilla control light, replicate 2 = 1.65e6
Not3 (GeneID 35501) #2: firefly reporter light, replicate 1 = 3.83e5; firefly reporter light, replicate 2 = 2.68e5; Renilla control light, replicate 1 = 6.09e5; Renilla control light, replicate 2 = 5.86e5
ana3 (GeneID 36341) #1: firefly reporter light, replicate 1 = 2.29e5; firefly reporter light, replicate 2 = 1.64e5; Renilla control light, replicate 1 = 1.18e6; Renilla control light, replicate 2 = 8.78e5
ana3 (GeneID 36341) #2: firefly reporter light, replicate 1 = 4.22e5; firefly reporter light, replicate 2 = 3.95e5; Renilla control light, replicate 1 = 1.30e6; Renilla control light, replicate 2 = 1.42e6
CG11703 (GeneID 42307) #1: firefly reporter light, replicate 1 = 1.10e5; firefly reporter light, replicate 2 = 1.19e5; Renilla control light, replicate 1 = 8.99e5; Renilla control light, replicate 2 = 9.05e5
CG11703 (GeneID 42307) #2: firefly reporter light, replicate 1 = 2.69e5; firefly reporter light, replicate 2 = 1.83e5; Renilla control light, replicate 1 = 5.38e5; Renilla control light, replicate 2 = 4.64e5
Mabi (GeneID 34727) #1: firefly reporter light, replicate 1 = 5.61e5; firefly reporter light, replicate 2 = 7.79e5; Renilla control light, replicate 1 = 1.76e6; Renilla control light, replicate 2 = 1.67e6
Mabi (GeneID 34727) #2: firefly reporter light, replicate 1 = 4.34e5; firefly reporter light, replicate 2 = 2.79e5; Renilla control light, replicate 1 = 1.04e6; Renilla control light, replicate 2 = 1.33e6
His3.3A (GeneID 33736) #1: firefly reporter light, replicate 1 = 1.67e5; firefly reporter light, replicate 2 = 1.36e5; Renilla control light, replicate 1 = 22310; Renilla control light, replicate 2 = 34862
His3.3A (GeneID 33736) #2: firefly reporter light, replicate 1 = 5.99e5; firefly reporter light, replicate 2 = 4.01e5; Renilla control light, replicate 1 = 2.38e5; Renilla control light, replicate 2 = 2.80e5
Cdc5 (GeneID 38062): firefly reporter light, replicate 1 = 9.10e5; firefly reporter light, replicate 2 = 8.44e5; Renilla control light, replicate 1 = 1.72e6; Renilla control light, replicate 2 = 1.55e6
CG31473 (GeneID 318753) #1: firefly reporter light, replicate 1 = 1.39e5; firefly reporter light, replicate 2 = 1.03e5; Renilla control light, replicate 1 = 2.90e6; Renilla control light, replicate 2 = 1.89e6
CG31473 (GeneID 318753) #2: firefly reporter light, replicate 1 = 5.42e5; firefly reporter light, replicate 2 = 7.92e5; Renilla control light, replicate 1 = 1.24e6; Renilla control light, replicate 2 = 1.43e6
Cchl (GeneID 42590): firefly reporter light, replicate 1 = 87021; firefly reporter light, replicate 2 = 67043; Renilla control light, replicate 1 = 5.61e5; Renilla control light, replicate 2 = 5.03e5
CG13877 + pyx: firefly reporter light, replicate 1 = 1.62e5; firefly reporter light, replicate 2 = 1.29e5; Renilla control light, replicate 1 = 1.52e6; Renilla control light, replicate 2 = 1.54e6
CG42855 (GeneID 10178866): firefly reporter light, replicate 1 = 94980; firefly reporter light, replicate 2 = 1.57e5; Renilla control light, replicate 1 = 1.35e6; Renilla control light, replicate 2 = 1.05e6
CG14568 (GeneID 40418): firefly reporter light, replicate 1 = 2.52e5; firefly reporter light, replicate 2 = 2.65e5; Renilla control light, replicate 1 = 2.48e6; Renilla control light, replicate 2 = 3.10e6
Chs2 (GeneID 40442): firefly reporter light, replicate 1 = 2.31e5; firefly reporter light, replicate 2 = 2.42e5; Renilla control light, replicate 1 = 2.57e6; Renilla control light, replicate 2 = 2.82e6
dimm (GeneID 35404): firefly reporter light, replicate 1 = 1.73e5; firefly reporter light, replicate 2 = 2.07e5; Renilla control light, replicate 1 = 1.57e6; Renilla control light, replicate 2 = 1.38e6
PSMG1 (GeneID 40719) #1: firefly reporter light, replicate 1 = 42138; firefly reporter light, replicate 2 = 40163; Renilla control light, replicate 1 = 4.60e5; Renilla control light, replicate 2 = 4.22e5
PSMG1 (GeneID 40719) #2: firefly reporter light, replicate 1 = 2.54e5; firefly reporter light, replicate 2 = 4.66e5; Renilla control light, replicate 1 = 9.07e5; Renilla control light, replicate 2 = 1.18e6
CG1690 (GeneID 36004): firefly reporter light, replicate 1 = 3.35e5; firefly reporter light, replicate 2 = 3.41e5; Renilla control light, replicate 1 = 1.93e6; Renilla control light, replicate 2 = 2.27e6
CG9760 (GeneID 39388) #1: firefly reporter light, replicate 1 = 1.91e5; firefly reporter light, replicate 2 = 1.57e5; Renilla control light, replicate 1 = 2.58e6; Renilla control light, replicate 2 = 2.31e6
CG9760 (GeneID 39388) #2: firefly reporter light, replicate 1 = 7.19e5; firefly reporter light, replicate 2 = 7.81e5; Renilla control light, replicate 1 = 6.78e5; Renilla control light, replicate 2 = 8.30e5

Already shown: 3 of the entries above.
PSMG1 (GeneID 40719) #2: firefly reporter light, replicate 1 = 2.54e5; firefly reporter light, replicate 2 = 4.66e5; Renilla control light, replicate 1 = 9.07e5; Renilla control light, replicate 2 = 1.18e6
CG1690 (GeneID 36004): firefly reporter light, replicate 1 = 3.35e5; firefly reporter light, replicate 2 = 3.41e5; Renilla control light, replicate 1 = 1.93e6; Renilla control light, replicate 2 = 2.27e6
CG9760 (GeneID 39388) #1: firefly reporter light, replicate 1 = 1.91e5; firefly reporter light, replicate 2 = 1.57e5; Renilla control light, replicate 1 = 2.58e6; Renilla control light, replicate 2 = 2.31e6
